Data from the supplement of paper PMC11006884.
Only a part is listed here, and it is no random draw.

Sequences of proteins named here, by UniProt entry; tags and fusion partners are left off. A change or cut given only in a name is not applied to a line headed by its entry.
UniProt A6NHR9: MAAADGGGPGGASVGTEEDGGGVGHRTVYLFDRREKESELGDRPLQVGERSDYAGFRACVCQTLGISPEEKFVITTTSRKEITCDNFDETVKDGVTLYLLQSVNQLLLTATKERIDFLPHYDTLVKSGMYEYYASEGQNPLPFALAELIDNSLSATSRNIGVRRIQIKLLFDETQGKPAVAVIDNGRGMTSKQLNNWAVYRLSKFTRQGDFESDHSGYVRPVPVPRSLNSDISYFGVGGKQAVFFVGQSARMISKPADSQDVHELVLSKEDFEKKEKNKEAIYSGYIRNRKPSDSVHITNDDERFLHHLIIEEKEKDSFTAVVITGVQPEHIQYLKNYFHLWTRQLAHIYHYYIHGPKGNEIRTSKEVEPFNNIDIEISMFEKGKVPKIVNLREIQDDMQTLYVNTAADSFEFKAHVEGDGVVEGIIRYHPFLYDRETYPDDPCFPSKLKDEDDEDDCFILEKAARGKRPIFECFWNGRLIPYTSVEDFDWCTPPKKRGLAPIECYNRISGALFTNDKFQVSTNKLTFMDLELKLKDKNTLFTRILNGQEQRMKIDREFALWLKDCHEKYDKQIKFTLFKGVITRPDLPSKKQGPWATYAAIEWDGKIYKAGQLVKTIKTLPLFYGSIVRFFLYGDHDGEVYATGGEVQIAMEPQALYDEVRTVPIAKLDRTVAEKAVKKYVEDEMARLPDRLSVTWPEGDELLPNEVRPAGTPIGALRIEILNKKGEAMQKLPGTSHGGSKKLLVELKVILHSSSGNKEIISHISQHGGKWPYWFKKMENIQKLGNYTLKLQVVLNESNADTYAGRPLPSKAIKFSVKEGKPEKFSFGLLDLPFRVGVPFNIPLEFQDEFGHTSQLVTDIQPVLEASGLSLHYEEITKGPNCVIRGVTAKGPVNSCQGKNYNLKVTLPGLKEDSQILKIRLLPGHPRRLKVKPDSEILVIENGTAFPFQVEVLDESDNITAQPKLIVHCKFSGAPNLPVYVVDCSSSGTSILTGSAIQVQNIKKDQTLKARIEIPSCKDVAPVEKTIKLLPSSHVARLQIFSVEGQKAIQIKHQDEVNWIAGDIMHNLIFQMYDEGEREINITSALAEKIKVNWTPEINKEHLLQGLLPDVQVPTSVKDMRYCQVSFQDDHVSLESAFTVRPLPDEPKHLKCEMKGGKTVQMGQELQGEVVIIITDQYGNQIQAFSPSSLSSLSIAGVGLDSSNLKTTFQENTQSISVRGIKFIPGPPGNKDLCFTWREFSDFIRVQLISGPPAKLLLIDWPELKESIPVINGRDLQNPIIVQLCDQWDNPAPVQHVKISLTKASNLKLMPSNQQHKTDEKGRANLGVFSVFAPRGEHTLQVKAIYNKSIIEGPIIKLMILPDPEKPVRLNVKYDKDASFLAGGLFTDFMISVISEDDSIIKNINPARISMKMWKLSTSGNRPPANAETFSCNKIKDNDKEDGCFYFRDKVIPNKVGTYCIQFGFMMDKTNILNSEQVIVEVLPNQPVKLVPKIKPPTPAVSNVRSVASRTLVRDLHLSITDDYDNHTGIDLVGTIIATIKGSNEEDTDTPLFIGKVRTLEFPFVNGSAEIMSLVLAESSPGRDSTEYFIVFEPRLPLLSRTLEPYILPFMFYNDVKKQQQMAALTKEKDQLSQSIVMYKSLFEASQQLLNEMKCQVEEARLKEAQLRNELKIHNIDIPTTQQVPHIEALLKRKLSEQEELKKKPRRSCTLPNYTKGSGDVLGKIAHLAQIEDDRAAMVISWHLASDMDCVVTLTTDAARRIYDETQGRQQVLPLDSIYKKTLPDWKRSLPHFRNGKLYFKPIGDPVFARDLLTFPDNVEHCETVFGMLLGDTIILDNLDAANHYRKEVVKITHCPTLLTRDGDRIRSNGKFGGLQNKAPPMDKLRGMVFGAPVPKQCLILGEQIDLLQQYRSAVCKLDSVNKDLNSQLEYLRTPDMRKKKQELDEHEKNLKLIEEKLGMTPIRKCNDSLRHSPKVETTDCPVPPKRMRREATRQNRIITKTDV
UniProt A6NDG6: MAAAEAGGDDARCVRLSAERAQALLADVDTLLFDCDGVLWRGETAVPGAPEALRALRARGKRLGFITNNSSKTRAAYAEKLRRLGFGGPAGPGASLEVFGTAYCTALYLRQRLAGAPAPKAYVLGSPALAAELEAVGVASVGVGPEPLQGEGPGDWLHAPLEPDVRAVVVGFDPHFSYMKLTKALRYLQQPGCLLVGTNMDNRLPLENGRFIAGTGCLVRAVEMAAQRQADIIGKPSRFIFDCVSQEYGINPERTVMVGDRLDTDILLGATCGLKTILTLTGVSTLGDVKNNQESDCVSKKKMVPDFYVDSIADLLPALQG
UniProt A2RUB1: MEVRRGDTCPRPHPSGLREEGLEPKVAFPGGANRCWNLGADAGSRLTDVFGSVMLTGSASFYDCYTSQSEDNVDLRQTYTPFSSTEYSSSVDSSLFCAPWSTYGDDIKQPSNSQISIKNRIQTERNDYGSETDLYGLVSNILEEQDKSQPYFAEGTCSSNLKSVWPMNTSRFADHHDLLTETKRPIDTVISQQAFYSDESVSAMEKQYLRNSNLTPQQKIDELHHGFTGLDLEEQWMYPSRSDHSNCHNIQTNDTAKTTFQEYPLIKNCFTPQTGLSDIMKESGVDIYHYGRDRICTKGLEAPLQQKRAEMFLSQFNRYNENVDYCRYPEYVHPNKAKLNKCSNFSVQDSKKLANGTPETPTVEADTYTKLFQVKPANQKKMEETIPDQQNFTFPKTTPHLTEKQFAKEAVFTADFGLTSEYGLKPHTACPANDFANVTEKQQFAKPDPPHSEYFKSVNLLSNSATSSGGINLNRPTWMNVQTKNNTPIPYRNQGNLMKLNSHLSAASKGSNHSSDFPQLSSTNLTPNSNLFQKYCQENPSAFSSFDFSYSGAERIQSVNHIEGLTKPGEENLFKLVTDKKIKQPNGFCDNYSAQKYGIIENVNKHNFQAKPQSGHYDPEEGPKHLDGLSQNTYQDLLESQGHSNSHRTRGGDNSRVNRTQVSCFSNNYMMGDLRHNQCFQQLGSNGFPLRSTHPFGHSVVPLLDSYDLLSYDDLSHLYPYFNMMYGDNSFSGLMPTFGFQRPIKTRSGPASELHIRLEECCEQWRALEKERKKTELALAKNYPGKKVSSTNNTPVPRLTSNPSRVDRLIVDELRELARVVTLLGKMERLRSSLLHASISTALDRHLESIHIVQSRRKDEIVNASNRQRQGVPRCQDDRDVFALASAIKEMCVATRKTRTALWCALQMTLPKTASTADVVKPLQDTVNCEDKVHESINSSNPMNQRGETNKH
UniProt A6NHG4: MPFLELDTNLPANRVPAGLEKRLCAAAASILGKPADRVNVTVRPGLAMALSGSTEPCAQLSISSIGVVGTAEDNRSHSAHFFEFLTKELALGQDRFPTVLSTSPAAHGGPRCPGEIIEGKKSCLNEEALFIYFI
UniProt A5YKK6, whole entry, looked up: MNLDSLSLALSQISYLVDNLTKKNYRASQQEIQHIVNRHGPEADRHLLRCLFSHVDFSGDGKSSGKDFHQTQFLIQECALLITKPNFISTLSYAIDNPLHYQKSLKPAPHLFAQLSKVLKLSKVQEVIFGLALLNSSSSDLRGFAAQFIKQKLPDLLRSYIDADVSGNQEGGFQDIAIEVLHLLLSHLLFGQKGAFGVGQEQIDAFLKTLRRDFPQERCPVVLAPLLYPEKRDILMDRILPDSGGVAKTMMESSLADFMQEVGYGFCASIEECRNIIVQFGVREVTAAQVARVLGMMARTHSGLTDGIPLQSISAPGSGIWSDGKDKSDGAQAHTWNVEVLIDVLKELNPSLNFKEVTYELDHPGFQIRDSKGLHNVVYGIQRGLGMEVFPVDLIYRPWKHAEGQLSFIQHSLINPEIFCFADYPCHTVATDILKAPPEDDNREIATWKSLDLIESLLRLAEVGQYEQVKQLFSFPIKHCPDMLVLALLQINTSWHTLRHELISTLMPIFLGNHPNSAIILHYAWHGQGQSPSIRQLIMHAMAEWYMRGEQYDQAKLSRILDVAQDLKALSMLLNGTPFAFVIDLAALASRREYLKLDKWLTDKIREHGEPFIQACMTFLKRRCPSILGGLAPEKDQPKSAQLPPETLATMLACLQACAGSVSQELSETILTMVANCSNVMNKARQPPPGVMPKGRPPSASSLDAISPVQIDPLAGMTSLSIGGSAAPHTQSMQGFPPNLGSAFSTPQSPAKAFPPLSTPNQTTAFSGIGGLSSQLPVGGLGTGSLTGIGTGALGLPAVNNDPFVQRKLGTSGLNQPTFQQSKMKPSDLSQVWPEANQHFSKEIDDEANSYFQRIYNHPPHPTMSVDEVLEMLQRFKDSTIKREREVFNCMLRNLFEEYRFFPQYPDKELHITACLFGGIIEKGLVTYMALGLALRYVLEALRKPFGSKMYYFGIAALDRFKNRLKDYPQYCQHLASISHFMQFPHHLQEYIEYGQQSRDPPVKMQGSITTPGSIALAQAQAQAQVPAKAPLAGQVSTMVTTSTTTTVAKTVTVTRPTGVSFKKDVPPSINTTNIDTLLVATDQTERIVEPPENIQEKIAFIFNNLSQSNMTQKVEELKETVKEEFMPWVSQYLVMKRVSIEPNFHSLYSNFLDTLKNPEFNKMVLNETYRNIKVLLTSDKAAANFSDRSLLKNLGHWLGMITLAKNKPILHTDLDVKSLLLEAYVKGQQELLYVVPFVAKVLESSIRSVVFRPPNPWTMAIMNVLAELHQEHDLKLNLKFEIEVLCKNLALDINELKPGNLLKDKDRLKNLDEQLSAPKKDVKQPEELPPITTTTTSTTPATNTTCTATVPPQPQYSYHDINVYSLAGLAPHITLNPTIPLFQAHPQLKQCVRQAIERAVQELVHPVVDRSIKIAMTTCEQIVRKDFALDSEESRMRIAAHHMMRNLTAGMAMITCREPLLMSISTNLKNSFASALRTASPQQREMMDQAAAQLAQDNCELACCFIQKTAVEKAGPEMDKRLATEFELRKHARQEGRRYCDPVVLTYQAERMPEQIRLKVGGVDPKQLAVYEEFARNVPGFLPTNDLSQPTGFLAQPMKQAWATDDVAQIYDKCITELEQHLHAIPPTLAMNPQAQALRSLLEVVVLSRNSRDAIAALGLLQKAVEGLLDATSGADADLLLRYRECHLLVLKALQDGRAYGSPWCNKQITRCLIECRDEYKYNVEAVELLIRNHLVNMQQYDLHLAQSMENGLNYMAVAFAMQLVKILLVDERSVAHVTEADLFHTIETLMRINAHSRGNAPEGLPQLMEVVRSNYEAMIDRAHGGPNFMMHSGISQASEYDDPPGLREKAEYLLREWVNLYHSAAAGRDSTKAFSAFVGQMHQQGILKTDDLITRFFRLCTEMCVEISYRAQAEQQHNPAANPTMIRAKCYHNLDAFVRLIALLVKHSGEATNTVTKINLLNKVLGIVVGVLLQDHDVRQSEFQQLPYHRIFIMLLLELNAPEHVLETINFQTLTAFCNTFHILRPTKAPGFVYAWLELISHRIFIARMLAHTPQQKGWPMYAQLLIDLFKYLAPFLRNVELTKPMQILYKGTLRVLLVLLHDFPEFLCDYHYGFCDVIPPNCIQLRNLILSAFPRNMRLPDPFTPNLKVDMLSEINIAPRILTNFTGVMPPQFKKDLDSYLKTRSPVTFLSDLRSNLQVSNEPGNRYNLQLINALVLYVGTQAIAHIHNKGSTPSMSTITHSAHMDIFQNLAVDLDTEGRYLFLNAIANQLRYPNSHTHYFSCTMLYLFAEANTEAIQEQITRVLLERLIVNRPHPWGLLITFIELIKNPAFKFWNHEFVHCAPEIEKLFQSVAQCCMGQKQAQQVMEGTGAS
UniProt A5PLL7: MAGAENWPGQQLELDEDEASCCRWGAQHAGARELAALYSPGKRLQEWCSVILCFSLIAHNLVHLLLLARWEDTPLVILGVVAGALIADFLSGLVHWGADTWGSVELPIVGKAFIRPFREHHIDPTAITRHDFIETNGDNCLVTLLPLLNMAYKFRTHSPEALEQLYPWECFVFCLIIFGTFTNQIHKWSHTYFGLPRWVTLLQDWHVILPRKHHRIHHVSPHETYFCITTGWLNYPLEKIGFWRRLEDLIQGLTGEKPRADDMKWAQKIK
UniProt A4D1E9: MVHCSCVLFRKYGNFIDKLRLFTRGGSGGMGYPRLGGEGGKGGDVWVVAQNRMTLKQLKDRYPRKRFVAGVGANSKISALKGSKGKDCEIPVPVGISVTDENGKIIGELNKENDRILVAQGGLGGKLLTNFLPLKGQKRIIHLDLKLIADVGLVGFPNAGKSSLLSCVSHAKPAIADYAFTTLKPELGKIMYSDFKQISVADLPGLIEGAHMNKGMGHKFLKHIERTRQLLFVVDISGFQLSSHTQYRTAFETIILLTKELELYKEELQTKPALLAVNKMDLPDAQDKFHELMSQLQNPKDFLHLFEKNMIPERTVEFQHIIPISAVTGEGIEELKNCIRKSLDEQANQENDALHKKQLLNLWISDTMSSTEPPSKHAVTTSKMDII

Compound: COC(=O)C#Cc1ccccc1 [methyl 3-phenylpropiolate]
Test: log2 ratio of iodoacetamide-alkyne labeling of the cysteine site, DMSO over compound (competition); higher = stronger covalent engagement of the cysteine by the compound, active = 1 or more
Conditions: 500 µM; treatment time 1 h; system: HEK293T cell lysate
In short: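 The log2 competition ratio per cysteine is defined as mean reporter intensity in control channels over mean reporter intensity in compound channels. Lysate from HEK293T cells (2 mg/mL) received electrophile (500 µM) or vehicle for 1 h at ambient temperature, followed by iodoacetamide alkyne for 1 h. Samples were clicked to sCIP-TMT reagents, pooled, trypsin-digested overnight at 37 °C, streptavidin-enriched, acid-eluted and run on Orbitrap Eclipse LC-MS/MS with FAIMS, with quantification in FragPipe. Three replicates with duplicate channels were used, and any cysteine quantified in only one replicate was excluded.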

Row | Target | log2 ratio of iodoacetamide-alkyne labeling
1 | UHRF1BP1L C633 (UniProt A0JNW5) | inactive: -0.28
2 | SMCHD1 C492 (UniProt A6NHR9) | inactive: 0.23
3 | PGP C243 (UniProt A6NDG6) | inactive: 0.0497
4 | UniProt A2RUB1_C269 | inactive: 0.363
5 | SMCHD1 C1433 (UniProt A6NHR9) | inactive: 0.392
6 | A0AVT1_C625 | inactive: 0.437
7 | UHRF1BP1L C647 (UniProt A0JNW5) | inactive: 0.147
8 | UniProt A0MZ66_C442 | inactive: 0.217
9 | A0AVT1_C546 | inactive: 0.402
10 | ILVBL C568 (UniProt A1L0T0) | inactive: 0.587
11 | SMCHD1 C1899 (UniProt A6NHR9) | inactive: 0.338
12 | A0AVT1_C721 | inactive: 0.0661
13 | PGP C297 (UniProt A6NDG6) | active: 1.17
14 | DDTL C24 (UniProt A6NHG4) | inactive: -0.0505
15 | CNOT1 C219 (UniProt A5YKK6) | inactive: 0.263
16 | SMCHD1 C1823 (UniProt A6NHR9) | inactive: -0.0104
17 | TMEM189 C22 (UniProt A5PLL7) | active: 1.52
18 | A0AVT1_C347 | active: 2.27
19 | SH3PXD2B C783 (UniProt A1X283) | inactive: 0.777

Two records picked at random from the list so far:
Row | Target | log2 ratio of iodoacetamide-alkyne labeling
12 | A0AVT1_C721 | inactive: 0.0661
9 | A0AVT1_C546 | inactive: 0.402

Continuation.

Row | Target | log2 ratio of iodoacetamide-alkyne labeling
20 | GTPBP10 C338 (UniProt A4D1E9) | inactive: -0.201
21 | SMCHD1 C1656 (UniProt A6NHR9) | inactive: 0.256
22 | ZNF316 C650 (UniProt A6NFI3) | inactive: 0.386
23 | UniProt A0MZ66_C565 | inactive: 0.734
24 | SMCHD1 C1856 (UniProt A6NHR9) | inactive: 0.734
25 | TMEM189 C21 (UniProt A5PLL7) | active: 1.52
26 | C5orf51 C179 (UniProt A6NDU8) | inactive: 0.512
27 | SMCHD1 C1917 (UniProt A6NHR9) | inactive: -0.0118
28 | ILVBL C315 (UniProt A1L0T0) | inactive: 0.225
29 | SMCHD1 C84 (UniProt A6NHR9) | inactive: -0.0492
30 | UniProt A2RUB1_C342 | inactive: 0.75
31 | CNOT1 C624 (UniProt A5YKK6) | inactive: 0.347
32 | SMCHD1 C1124 (UniProt A6NHR9) | inactive: 0.17
33 | CNOT1 C1541 (UniProt A5YKK6) | inactive: 0.498
34 | SMCHD1 C59 (UniProt A6NHR9) | inactive: 0.182
35 | A0AV96_C349 | inactive: -0.0266
36 | PGP C193 (UniProt A6NDG6) | inactive: -0.0768
37 | UniProt A2RUB1_C664 | inactive: 0.522
